No dose or concentration is given here for some results.
System: BMP6
Assay: Ligand induced transcriptional activity assay (BRE-Luc)
Type: cell-based
Settings: TGFβ1 IC50 versus BMP6 IC50

Structure (SMILES)	Fold Select.
COc1cc(-c2cnc(N)c(-c3cc(OC)c(OC)c(OC)c3)c2)ccc1O [Compound 12, 4-(6-amino-5-(3,4,5-trimethoxyphenyl)pyridin-3-yl)-2-methoxyphenol]	28
COc1cc(-c2cc(-c3ccc(N4CCNCC4)cc3)cnc2Cl)cc(OC)c1OC [Compound 27, 1-(4-(6-chloro-5-(3,4,5-trimethoxyphenyl)pyridin-3-yl)phenyl)piperazine]	244
COc1ccc(-c2cc(-c3ccc(N4CCNCC4)cc3)cnc2N)cc1 [Compound 20, 3-(4-methoxyphenyl)-5-(4-(piperazin-1-yl)phenyl)pyridin-2-amine]	48
COc1cc(OC)cc(-c2cncc(-c3ccc(N4CCNCC4)cc3)c2)c1 [Compound 33, 1-(4-(5-(3,5-dimethoxyphenyl)pyridin-3-yl)phenyl)piperazine]	102
COc1cc(-c2cc(-c3ccc(N4CCNCC4)cc3)cnc2N(C)C)cc(OC)c1OC [Compound 25, N,N-dimethyl-5-(4-(piperazin-1-yl)phenyl)-3-(3,4,5-trimethoxyphenyl)pyridin-2-amine]	68
COc1cc(-c2cc(-c3ccc(N4CCNCC4)cc3)cnc2OC)cc(OC)c1OC [Compound 28, 1-(4-(6-methoxy-5-(3,4,5-trimethoxyphenyl)pyridin-3-yl)phenyl)piperazine]	48
CNc1ncc(-c2ccc(N3CCNCC3)cc2)cc1-c1cc(OC)c(OC)c(OC)c1 [Compound 24, N-methyl-5-(4-(piperazin-1-yl)phenyl)-3-(3,4,5-trimethoxyphenyl)pyridin-2-amine]	99
COc1cc(-c2cc(-c3ccc(O)cc3)cnc2N)cc(OC)c1OC [Compound 11, 4-(6-Amino-5-(3,4,5-trimethoxyphenyl)pyridin-3-yl)phenol]	28
